Assay [1] deals with D5R fused to RLuc (D5R-RLuc) (human) (UniProt P21918). As to the kind of experiment: FRET or BRET; BRET1 saturation in living HEK293T cells: constant D5R-RLuc cDNA (0.8 µg), increasing receptor-YFP cDNA; coelenterazine H 5 µM; a saturation curve is read as oligomerization, a straight line as random collision. (In BRET a luciferase serves as donor, and the signal depends on an acceptor being close.)

Amino acid sequences for entries named in this document (tags omitted). A change or cut given only in a name is not applied to a line headed by its entry. Chains listed by the source or under a name are the forms on record and can include a tag or linker.
UniProt P21918: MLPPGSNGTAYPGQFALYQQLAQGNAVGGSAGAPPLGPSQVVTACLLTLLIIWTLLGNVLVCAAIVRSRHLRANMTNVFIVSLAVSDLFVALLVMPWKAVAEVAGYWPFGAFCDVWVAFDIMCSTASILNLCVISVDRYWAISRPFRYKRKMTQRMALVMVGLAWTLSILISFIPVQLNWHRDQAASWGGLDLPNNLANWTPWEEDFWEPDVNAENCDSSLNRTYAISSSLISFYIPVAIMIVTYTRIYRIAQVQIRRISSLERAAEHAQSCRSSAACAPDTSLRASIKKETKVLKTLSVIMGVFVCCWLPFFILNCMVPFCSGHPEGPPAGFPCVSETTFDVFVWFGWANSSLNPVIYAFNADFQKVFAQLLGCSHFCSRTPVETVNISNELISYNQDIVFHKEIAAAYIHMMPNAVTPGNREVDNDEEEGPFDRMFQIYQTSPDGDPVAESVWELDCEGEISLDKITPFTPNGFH
UniProt Q92847: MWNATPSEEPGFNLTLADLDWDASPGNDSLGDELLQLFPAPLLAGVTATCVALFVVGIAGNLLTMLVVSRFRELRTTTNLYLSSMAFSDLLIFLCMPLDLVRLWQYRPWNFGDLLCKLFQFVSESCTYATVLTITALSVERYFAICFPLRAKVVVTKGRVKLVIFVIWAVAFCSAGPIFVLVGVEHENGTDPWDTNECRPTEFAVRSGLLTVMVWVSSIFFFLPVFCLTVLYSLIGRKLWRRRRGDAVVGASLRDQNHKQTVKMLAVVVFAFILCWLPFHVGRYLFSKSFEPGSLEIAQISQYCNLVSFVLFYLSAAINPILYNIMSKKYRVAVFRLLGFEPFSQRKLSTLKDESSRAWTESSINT
GHS-R1b fused to YFP (GHS-R1b-YFP) (Q92847-2, form named): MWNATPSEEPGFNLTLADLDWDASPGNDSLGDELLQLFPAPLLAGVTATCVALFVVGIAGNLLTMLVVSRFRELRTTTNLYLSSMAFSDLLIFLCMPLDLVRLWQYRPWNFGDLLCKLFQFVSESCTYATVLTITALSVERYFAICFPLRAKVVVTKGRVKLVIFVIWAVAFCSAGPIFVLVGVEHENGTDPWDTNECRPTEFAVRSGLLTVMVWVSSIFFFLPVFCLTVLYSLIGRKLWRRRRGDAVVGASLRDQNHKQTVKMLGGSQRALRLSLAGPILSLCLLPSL

For assay [2] the target is unchanged. The assay can be described thus: FRET or BRET; SRET (sequential BRET-FRET) saturation in living HEK293T cells: constant D5R-RLuc cDNA (1 µg) and GHS-R1a-GFP2 cDNA (1.5 µg), increasing GHS-R1b-YFP cDNA (0.1–1.5 µg); DeepBlueC 5 µM.
Assay [3] addresses GHS-R1a fused to GFP2 (GHS-R1a-GFP2) (human) (UniProt Q92847). The description is as above.

Results are given in words; binding and its absence hold for the method and conditions named. In cells and extracts the contact can be indirect. Some entries that bind do so weakly or less than the wild type.

The values below come from paper PMC8824505, “Complexes of Ghrelin GHS-R1a, GHS-R1b, and Dopamine D1 Receptors Localized in the Ventral Tegmental Area as Main Mediators of the Dopaminergic Effects of Ghrelin” (The Journal of Neuroscience, 2022).

“GHS-R1a fused to YFP (GHS-R1a-YFP) (from UniProt Q92847-1 1-366) (receptor)”: the binding result in assay [1] is listed as “no binding”.
Turning to “GHS-R1b fused to YFP (GHS-R1b-YFP) (from UniProt Q92847-2 1-289) (receptor)”, the binding entry in assay [1], in assay [2] and in assay [3] was “binds” each time.
